Source: publication PMC3021539
These are yes or no findings as the source states them, for the method shown. A result given as binding can be weak or reduced; the word gives no strength.

Molecular target: HIV-1 Gag (HIV-1)
Assay: virus-like-particle incorporation assay; 293T cells co-transfected with 1.0 µg TRIM plasmid and 0.2 µg (0.25 µg in the human TRIM panel) codon-optimized HIV-1 Gag-Pol plasmid pH-GP; filtered supernatant centrifuged at 18,000×g for 90 min through 20% sucrose, washed in PBS; pelleted VLPs immunoblotted with anti-HA and anti-p24

B1: Human TRIM18 (protein, UniProt O15344 1-667)
chain: METLESELTCPICLELFEDPLLLPCAHSLCFNCAHRILVSHCATNESVESITAFQCPTCRHVITLSQRGLDGLKRNVTLQNIIDRFQKASVSGPNSPSETRRERAFDANTMTSAEKVLCQFCDQDPAQDAVKTCVTCEVSYCDECLKATHPNKKPFTGHRLIEPIPDSHIRGLMCLEHEDEKVNMYCVTDDQLICALCKLVGRHRDHQVAALSERYDKLKQNLESNLTNLIKRNTELETLLAKLIQTCQHVEVNASRQEAKLTEECDLLIEIIQQRRQIIGTKIKEGKVMRLRKLAQQIANCKQCIERSASLISQAEHSLKENDHARFLQTAKNITERVSMATASSQVLIPEINLNDTFDTFALDFSREKKLLECLDYLTAPNPPTIREELCTASYDTITVHWTSDDEFSVVSYELQYTIFTGQANVVSLCNSADSWMIVPNIKQNHYTVHGLQSGTKYIFMVKAINQAGSRSSEPGKLKTNSQPFKLDPKSAHRKLKVSHDNLTVERDESSSKKSHTPERFTSQGSYGVAGNVFIDSGRHYWEVVISGSTWYAIGLAYKSAPKHEWIGKNSASWALCRCNNNWVVRHNSKEIPIEPAPHLRRVGILLDYDNGSIAFYDALNSIHLYTFDVAFAQPVCPTFTVWNKCLTIITGLPIPDHLDCTEQLP
binding: binds weakly
